The experiment deals with T1, HopF2-HA (P. syringae) (UniProt Q88A90).
T1 sequence: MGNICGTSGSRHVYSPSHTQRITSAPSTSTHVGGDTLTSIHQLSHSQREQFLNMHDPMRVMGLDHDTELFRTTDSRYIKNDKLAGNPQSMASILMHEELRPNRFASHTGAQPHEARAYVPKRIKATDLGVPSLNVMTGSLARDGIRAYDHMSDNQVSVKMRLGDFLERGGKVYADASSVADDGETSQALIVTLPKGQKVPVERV
Briefly: co-IP; taxol- and GTP-treated clarified extracts of transgenic Arabidopsis leaves, anti-HA agarose beads overnight at 4°C, washes with extraction buffer and RIPA buffer, blots with HA and tubulin antibodies, bands quantified by ImageJ.

No constants are given. Whether binding was seen depends on the method and setting. In cells and extracts the contact can be indirect. Where a sequence is shown, tags or fusion partners need not be part of it.

Arabidopsis tubulin (complex): the binding result was “no binding”.

Source of the values: publication PMC3271077.
